Measured values: patent US7973036B2, “2-methyl-5-imino-benzo[D][1 ,3]oxazin[5-B]pyrazole compound, preparation and use thereof” (Qingdao Huanghai Pharmaceutical Co., Ltd, priority 2008, dated 2011)

Experiment: Anti-DPPH free radical test (spectrophotometry at 517 nm)
Format: biochemical
Conditions: DPPH 5.080 mg/100 ml; for Absorption value of reaction liquid (A): 30 min, 517 nm; for Reaction liquid absorption value: Compound 1, 2 0.61 mg/100 ml, Compound 3 0.64 mg/100 ml
Source text: Anti-DPPH Free Radical Test
2,2-diphenyl-1-picrylhydrazyl (DPPH) free radical spectrophotometry is a simple method for screening antioxidants, the principle of which is using the characteristic absorption peak of DPPH solution at 517 nm. When free radical scavengers existed, single electron pairing between free radical scavenger and DPPH allowed the absorption of DPPH disappeared, and its decoloring degree and accepted electron number present as quantitative relation, and the antioxidant activity of samples can be evaluated through the amount of cleared DPPH, so the spectrophotometry can be used for quantitative analysis.
DPPH was accurately weighed and placed in a volumetric flask, and diluted to 100 ml with 95% ethanol. The absorbance (A) of DPPH was measured at 517 nm.
DPPH standard curve was shown in FIG. 1, the linear equation of which was as follows: y=0.219x−0.0285; r=0.9994.
DPPH was accurately weighed and placed in a 100 ml volumetric flask, and diluted to 100 ml with 95% ethanol to produce the DPPH solution.
Preparation of Test Drug Solution: the Test Drug was Accurately Weighed and Placed in a 100 ml volumetric flask, dissolved with 20 ml of 95% ethanol, adjusted to pH 7.5 and diluted to 100 ml with 95% ethanol.
5.0 ml of DPPH solution and 2.0 ml test drug solution were taken and placed in a 10 ml volumetric flask, fully shaken at room temperature for a certain time followed by determination of absorption value (A) at 517 nm.
Formula for calculating DPPH free radical scavenging ability of test drug, E (mgDPPH/mg):
Formula for calculating DPPH free radical scavenging ability of test drug, V (mmolDPPH/mmol): […]

[1] = test drug C 0.152 (Edaravone), 0.153 (Compound 1, 2), 0.159 (Compound 3) mg/100 ml
[2] = test drug C 0.304 (Edaravone), 0.305 (Compound 1, 2), 0.318 (Compound 3) mg/100 ml
[3] = test drug C 0.608 (Edaravone), 0.610 (Compound 1, 2), 0.635 (Compound 3) mg/100 ml
[4] = test drug C 1.215 (Edaravone), 1.220 (Compound 1, 2), 1.270 (Compound 3) mg/100 ml
[5] = test drug C 2.430 (Edaravone), 2.440 (Compound 1, 2), 2.540 (Compound 3) mg/100 ml

Row | Molecule | Absorption value of reaction liquid (A) [1] | Absorption value of reaction liquid (A) [2] | Absorption value of reaction liquid (A) [3] | Absorption value of reaction liquid (A) [4] | Absorption value of reaction liquid (A) [5] | Reaction liquid absorption value (reaction time 30 min) | Reaction liquid absorption value (reaction time 60 min) | Reaction liquid absorption value (reaction time 90 min) | Reaction liquid absorption value (reaction time 120 min) | Reaction liquid absorption value (reaction time 150 min)
1 | 2-methyl-benzo[d][1,3]oxazin[5-b]pyrazole-5-one [Compound 1] | 0.744 | 0.732 | 0.712 | 0.589 | 0.486 | 0.712 | 0.701 | 0.678 | 0.654 | 0.641
2 | Cc1cc(=O)n(-c2ccccc2C#N)[nH]1 [Compound 3, 1-(2-cyanophenyl)-3-methylpyrazol-5-one] | 0.729 | 0.695 | 0.650 | 0.440 | 0.052 | 0.650 | 0.648 | 0.646 | 0.647 | 0.645
3 | CC1=NN(c2ccccc2)C(=O)C1 [Edaravone, edaravone, reference compound] | 0.728 | 0.699 | 0.633 | 0.397 | 0.115 | – | – | – | – | –
4 | Cc1cc2oc(=N)c3ccccc3n2n1 [TR, 2-methyl-5-imino-benzo[d][1,3]oxazin[5-b]pyrazole] | 0.756 | 0.753 | 0.748 | 0.717 | 0.692 | 0.748 | 0.735 | 0.720 | 0.705 | 0.693
